PubChem BioAssay AID1053208 | Peter MacCallum Cancer Centre – 2014
The deposit covers about 17,000 reagents; below is a part drawn at random. Of all reagents, 788 (4.7%) are marked active. 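Calls rest on z-score classes alone; an extra cut-off of viability at most 70% of control was not applied to them.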 Further read-outs or replicates are left out here.

Assay: 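Synthetic lethal interactions between gene loss and doxorubicin in osteosarcoma cells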 (primary screen)
Cells: mouse osteosarcoma cells, early-passage culture from an engineered mouse model of fibroblastic bone tumour
Reagent: siRNA pool against mouse genes, 40 nM
Duration: about 120 h (48 h before drug, then 72 h with drug)
Conditions: doxorubicin 100 nM for 72 h, roughly 30-40% inhibitory dose
Measured: 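Luminescent ATP signal taken as viability with or without 100 nM doxorubicin for 72 h; mean of two wells set against non-targeting siRNA and turned into robust z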
Direction: viability z-score with doxorubicin: higher = more viable cells under doxorubicin; viability z-score without drug: higher = more viable cells with knock-down alone
Rule for the call: 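Called active if knock-down leaves viability unchanged without drug (z within -2 to 2) but lowers it with doxorubicin (z at or under -2)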

Cdk14 | combined z-score class = no change with or without drug; viability z-score with doxorubicin = 0.45; viability z-score without drug = -0.67; call = inactive
Larp6 | combined z-score class = no change with or without drug; viability z-score with doxorubicin = 0.22; viability z-score without drug = 0.51; call = inactive
Gstt1 | combined z-score class = no change with or without drug; viability z-score with doxorubicin = 0.67; viability z-score without drug = 1.85; call = inactive
Gcgr | combined z-score class = no change with or without drug; viability z-score with doxorubicin = -0.67; viability z-score without drug = -0.51; call = inactive
Rexo1 | combined z-score class = low cell count with doxorubicin only; viability z-score with doxorubicin = -2.7; viability z-score without drug = 0.51; call = active
4930433I11Rik | combined z-score class = high cell count without drug only; viability z-score with doxorubicin = -1.12; viability z-score without drug = 2.53; call = inactive
Kcnk18 | combined z-score class = no change with or without drug; viability z-score with doxorubicin = -0.56; viability z-score without drug = -1.52; call = inactive
Nsun4 | combined z-score class = no change with or without drug; viability z-score with doxorubicin = 0.79; viability z-score without drug = 1.85; call = inactive
Csnk1a1 | combined z-score class = no change with or without drug; viability z-score with doxorubicin = 0; viability z-score without drug = -0.17; call = inactive
Rhof | combined z-score class = no change with or without drug; viability z-score with doxorubicin = 0.11; viability z-score without drug = 0.17; call = inactive
Unc13a | combined z-score class = no change with or without drug; viability z-score with doxorubicin = 1.8; viability z-score without drug = 0.17; call = inactive
Fh1 | combined z-score class = no change with or without drug; viability z-score with doxorubicin = 0.11; viability z-score without drug = 1.18; call = inactive

Hits, among the entries above:
Rexo1 | combined z-score class = low cell count with doxorubicin only; viability z-score with doxorubicin = -2.7; viability z-score without drug = 0.51; call = active
